Values of other authors in article PMC12951568, “Identifying Structural Factors Governing the Photodynamic Activity of Phthalocyanines” (Journal of Medicinal Chemistry, 2026).

Tested on: HeLa cells
Set-up: method as in number not printed in Table 2; key: Ly, lysosomes; Me, membrane; Mi, mitochondria
Settings: 12 h incubation; determined previously at the same workplace and published; ref number not given; cited from earlier work

| Compound | Subcellular localization (HeLa) |
| --- | --- |
| CSc1cc2c(cc1SC)C1=Nc3c4cc(SC)c(SC)cc4c4[n]3[Zn][n]3c(c5cc(SC)c(SC)cc5c3=NC2=N1)=NC1=NC(=N4)c2cc(Oc3c(Cn4cc[n+](C)c4)cc(C)cc3Cn3cc[n+](C)c3)c(Oc3c(Cn4cc[n+](C)c4)cc(C)cc3Cn3cc[n+](C)c3)cc21.[I-].[I-].[I-].[I-] [C4Zn] | Ly, Me |
| Cc1cc(Cn2cc[n+](C)c2)c(Oc2c3c(c(C)c(C)[n+]2C)C2=NC3=Nc3c4cc(SC(C)(C)C)c(SC(C)(C)C)cc4c4[n]3[Zn][n]3c(c5cc(SC(C)(C)C)c(SC(C)(C)C)cc5c3=N2)=NC2=NC(=N4)c3cc(SC(C)(C)C)c(SC(C)(C)C)cc32)c(Cn2cc[n+](C)c2)c1.[I-].[I-].[I-] [C2Zn] | Ly, Me |
| CC[N+](CC)(CC)CCSc1ccc(SCC[N+](CC)(CC)CC)c2c1C1=NC2=Nc2c3c(SCC[N+](CC)(CC)CC)ccc(SCC[N+](CC)(CC)CC)c3c3[n]2[Zn][n]2c(c4c(SCC[N+](CC)(CC)CC)ccc(SCC[N+](CC)(CC)CC)c4c2=NC2=NC(=N3)c3c(SCC[N+](CC)(CC)CC)ccc(SCC[N+](CC)(CC)CC)c32)=N1.[I-].[I-].[I-].[I-].[I-].[I-].[I-].[I-] [C9Zn] | Ly |
| Cc1cc(Cn2cc[n+](C)c2)c(Oc2c3c(c(C)c(C)[n+]2C)C2=Nc4c5c(Oc6c(Cn7cc[n+](C)c7)cc(C)cc6Cn6cc[n+](C)c6)[n+](C)c(C)c(C)c5c5[n]4[Zn][n]4c(c6c(C)c(C)[n+](C)c(Oc7c(Cn8cc[n+](C)c8)cc(C)cc7Cn7cc[n+](C)c7)c6c4=NC4=NC(=N5)c5c4c(C)c(C)[n+](C)c5Oc4c(Cn5cc[n+](C)c5)cc(C)cc4Cn4cc[n+](C)c4)=NC3=N2)c(Cn2cc[n+](C)c2)c1.[I-].[I-].[I-].[I-].[I-].[I-].[I-].[I-].[I-].[I-].[I-].[I-] [C11Zn] | Ly |
| Cc1cc(Cn2cc[n+](C)c2)c(Oc2c3c(c(C)c(C)[n+]2C)C2=NC3=Nc3c4ccccc4c4[n]3[Zn][n]3c(c5ccccc5c3=N2)=NC2=NC(=N4)c3ccccc32)c(Cn2cc[n+](C)c2)c1.[I-].[I-].[I-] [C1Zn] | Ly, Me |
| Cc1cc(Cn2cc[n+](C)c2)c(Oc2cc3c(cc2Oc2c(Cn4cc[n+](C)c4)cc(C)cc2Cn2cc[n+](C)c2)C2=Nc4c5cc(Oc6c(Cn7cc[n+](C)c7)cc(C)cc6Cn6cc[n+](C)c6)c(Oc6c(Cn7cc[n+](C)c7)cc(C)cc6Cn6cc[n+](C)c6)cc5c5[n]4[Zn][n]4c(c6cc(Oc7c(Cn8cc[n+](C)c8)cc(C)cc7Cn7cc[n+](C)c7)c(Oc7c(Cn8cc[n+](C)c8)cc(C)cc7Cn7cc[n+](C)c7)cc6c4=NC4=NC(=N5)c5cc(Oc6c(Cn7cc[n+](C)c7)cc(C)cc6Cn6cc[n+](C)c6)c(Oc6c(Cn7cc[n+](C)c7)cc(C)cc6Cn6cc[n+](C)c6)cc54)=NC3=N2)c(Cn2cc[n+](C)c2)c1.[I-].[I-].[I-].[I-].[I-].[I-].[I-].[I-].[I-].[I-].[I-].[I-].[I-].[I-].[I-].[I-] [C12Zn] | Ly |
| Cc1cc(Cn2c[n+](C)cn2)c(Oc2cc3c(cc2Oc2c(Cn4c[n+](C)cn4)cc(C)cc2Cn2c[n+](C)cn2)C2=Nc4c5cc(Oc6c(Cn7c[n+](C)cn7)cc(C)cc6Cn6c[n+](C)cn6)c(Oc6c(Cn7c[n+](C)cn7)cc(C)cc6Cn6c[n+](C)cn6)cc5c5[n]4[Zn][n]4c(c6cc(Oc7c(Cn8c[n+](C)cn8)cc(C)cc7Cn7c[n+](C)cn7)c(Oc7c(Cn8c[n+](C)cn8)cc(C)cc7Cn7c[n+](C)cn7)cc6c4=NC4=NC(=N5)c5cc(Oc6c(Cn7c[n+](C)cn7)cc(C)cc6Cn6c[n+](C)cn6)c(Oc6c(Cn7c[n+](C)cn7)cc(C)cc6Cn6c[n+](C)cn6)cc54)=NC3=N2)c(Cn2c[n+](C)cn2)c1.[I-].[I-].[I-].[I-].[I-].[I-].[I-].[I-].[I-].[I-].[I-].[I-].[I-].[I-].[I-].[I-] [C13Zn] | Ly |
